The source of these data is publication PMC11481484.

This assay concerns the target T1, Rubella virus E1 envelope glycoprotein (Rubella virus (RuV)) (UniProt P08563).
T1 sequence (chain, N-linked carbohydrates (sites not printed)): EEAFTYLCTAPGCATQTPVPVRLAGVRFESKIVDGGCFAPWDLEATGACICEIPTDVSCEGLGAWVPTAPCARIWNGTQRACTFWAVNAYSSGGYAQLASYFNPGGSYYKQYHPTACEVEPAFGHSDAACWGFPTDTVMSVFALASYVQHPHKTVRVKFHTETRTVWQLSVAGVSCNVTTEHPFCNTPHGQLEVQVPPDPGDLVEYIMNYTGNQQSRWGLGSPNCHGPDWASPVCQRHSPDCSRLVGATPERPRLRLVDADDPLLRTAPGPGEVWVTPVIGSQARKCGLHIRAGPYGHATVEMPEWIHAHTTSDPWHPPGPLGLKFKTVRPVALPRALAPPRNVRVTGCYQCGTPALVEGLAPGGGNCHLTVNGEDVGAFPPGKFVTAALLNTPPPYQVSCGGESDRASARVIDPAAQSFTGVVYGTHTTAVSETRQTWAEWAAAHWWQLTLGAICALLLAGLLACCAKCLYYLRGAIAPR
The assay is described as follows: cross-linking + co-IP; BHK-21 cells 42 h post-electroporation with WT or mutant viral RNA cross-linked with 1 mM DSP in PBS, 10 min, room temperature, quenched with 125 mM glycine; lysis buffer 2 (10 mM sodium phosphate pH 7.4, 50 mM NaCl, 1% Triton X-100); IP with mAb E1-20 or control mAb; cross-link reversed by DTT; western blot with RuV pAb.

No constants are given. Whether binding was seen depends on the method and setting. Binding seen in cells or lysates may run through a third protein. Binding can be weak; no strength is given.

Consider “Rubella virus E2 envelope glycoprotein, pseudorevertant Y281V”, for which the binding entry was “binds”.
